PubChem BioAssay AID504764, Drosophila RNAi Screening Center | 2011

- Screen: 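Genome-wide screen for regulators of Notch-driven gene expression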 (primary screen)
- Cell system: Drosophila Kc167 cells
- Knock-down reagent: long dsRNA against Drosophila genes
- Timing: about 5 days (4 days dsRNA, then 24 h after transfection)
- Challenge: transfection of constitutively active membrane-tethered Notch lacking the extracellular domain, read 24 h later
- Detection: 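Light from a Notch-responsive E(spl)m3 luciferase reporter under active Notch, with control-promoter and no-Notch reporter wells to normalise; raw counts from paired wells a and b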
- Scale: induced reporter light, run 1, well a and induced reporter light, run 1, well b: higher = more light from the Notch target reporter with active Notch; control promoter light, run 1, well a and control promoter light, run 1, well b: higher = more light from the viral control promoter (cell number, transfection, viability); uninduced reporter light, run 1, well a: higher = more light from the Notch target reporter without active Notch
- Rule for the call: 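Wells with low control signal or poorly matching duplicates excluded; duplicates averaged; per source plate, z beyond ±2 for induced/control log2 ratio or beyond ±1.8 for induced/uninduced marks a hit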
- Meaning of the calls: active = modifier hit (raised or lowered Notch signal); inactive = not a hit
In all, the deposit lists about 22,000 reagents; this is an unselected part of those that have a named target and a result. In the full data, 403 (1.9%) are marked active. 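Unnormalised raw counts per well; ratio z-scores behind the hit calls and whether each hit raises or lowers signal are not deposited.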 Not given: the amount of reagent.

Gene	PubChem SID	induced reporter light, run 1, well a	induced reporter light, run 1, well b	control promoter light, run 1, well a	control promoter light, run 1, well b	uninduced reporter light, run 1, well a	outcome
Sdb (SAXO downstream of blistered)	SID104186064	1.02e5	92620	1.27e5	97370	7680	inactive
Sdb (SAXO downstream of blistered)	SID104186065	1.04e5	1.15e5	1.27e5	1.67e5	9275	inactive
Sdb (SAXO downstream of blistered)	SID104186947	1.56e5	1.38e5	1.31e5	1.43e5	14565	inactive
CG12877	SID104194357	1.18e5	1.36e5	2.13e5	1.88e5	10980	inactive
SoxN (SoxNeuro)	SID104183232	1.07e5	1.38e5	1.04e5	1.12e5	19070	inactive
SoxN (SoxNeuro)	SID104201440						inactive
CG18540	SID104186559	48020	37135	44760	39400	3565	inactive
RhoGAP100F (Rho GTPase activating protein at 100F)	SID104195201	1.79e5	2.13e5	2.85e5	2.84e5	14042	inactive
Gld2 (GLD2 poly(A) polymerase)	SID104195655	14425	14255	17635	16545	4788	inactive
CG31815	SID104181340	49720	71350	70055	72880	4820	inactive

3 neighbouring entries already listed, for reference:
Gene	PubChem SID	induced reporter light, run 1, well a	induced reporter light, run 1, well b	control promoter light, run 1, well a	control promoter light, run 1, well b	uninduced reporter light, run 1, well a	outcome
Sdb (SAXO downstream of blistered)	SID104186065	1.04e5	1.15e5	1.27e5	1.67e5	9275	inactive
Sdb (SAXO downstream of blistered)	SID104186947	1.56e5	1.38e5	1.31e5	1.43e5	14565	inactive
CG12877	SID104194357	1.18e5	1.36e5	2.13e5	1.88e5	10980	inactive

The list goes on.
Gene	PubChem SID	induced reporter light, run 1, well a	induced reporter light, run 1, well b	control promoter light, run 1, well a	control promoter light, run 1, well b	uninduced reporter light, run 1, well a	outcome
CG31802	SID104182251	1.46e5	1.62e5	1.29e5	1.67e5	12870	inactive
eIF3d1 (eukaryotic translation initiation factor 3 subunit d1)	SID104196730	32460	28520	30925	28085	1760	inactive
Nup50 (Nucleoporin 50kD)	SID104186619	2.04e5	1.91e5	1.75e5	1.59e5	12010	inactive
prim (primacord)	SID104186367	1.23e5	96090	1.24e5	1.07e5	10295	inactive
CG32281	SID104188028	1.31e5	1.30e5	98090	62455	11905	inactive
Scr (Sex combs reduced)	SID104192396	8545	9645	7042	5375	3395	inactive
CG12644 (retired record)	SID104197642	1.49e5	1.61e5	3.14e5	2.97e5	9565	inactive
Fib (Fibrillarin)	SID104184406	1.11e5	1.07e5	93520	92600	6630	inactive
CG11927	SID104180129	1.95e5	1.69e5	1.87e5	1.81e5	18130	inactive
Ulp1	SID104199131	84905	75650	63555	42355	5985	inactive
